Assay results published in patent publication US20240425865A1, “METHODS FOR TREATING CELLULAR INFLAMMATION INDUCED BY AFB1” (priority 2023, published 2024).
Results are given in words; binding and its absence hold for the method and conditions named. Binding seen in cells or lysates may run through a third protein. Some results given as binding are weak or reduced against the parent protein; the word gives no strength.

By UniProt entry, the sequences of proteins in these tests, tags left out.
UniProt Q04207: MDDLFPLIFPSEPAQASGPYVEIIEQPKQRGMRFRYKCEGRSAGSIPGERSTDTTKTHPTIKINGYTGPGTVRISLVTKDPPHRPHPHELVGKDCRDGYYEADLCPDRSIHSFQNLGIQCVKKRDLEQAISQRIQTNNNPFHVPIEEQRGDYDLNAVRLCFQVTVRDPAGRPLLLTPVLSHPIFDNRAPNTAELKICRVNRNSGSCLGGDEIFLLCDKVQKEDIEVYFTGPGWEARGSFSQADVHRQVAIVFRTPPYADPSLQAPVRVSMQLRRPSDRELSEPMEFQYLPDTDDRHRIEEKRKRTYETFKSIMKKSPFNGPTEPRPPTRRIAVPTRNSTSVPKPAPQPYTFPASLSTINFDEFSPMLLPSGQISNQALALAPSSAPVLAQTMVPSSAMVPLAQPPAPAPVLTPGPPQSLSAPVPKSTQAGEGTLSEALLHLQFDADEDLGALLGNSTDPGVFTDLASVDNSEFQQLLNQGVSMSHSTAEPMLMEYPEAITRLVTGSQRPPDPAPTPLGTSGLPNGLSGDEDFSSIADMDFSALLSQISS

Key:
[1] = target: E3 ubiquitin ligase TRIM7 (tripartite motif containing 7) (UniProt Q923T7); experiment: Co-IP from MPC-5 whole cell lysates with RelA antibody, Western blot; with or without AFB1 and MG-132
[2] = target: E3 ubiquitin ligase TRIM7 (tripartite motif containing 7) (UniProt Q923T7); experiment: summary of the IP-MS and Co-IP/Western blot in MPC-5 cells
[3] = target: E3 ubiquitin ligase TRIM7 (tripartite motif containing 7) (UniProt Q923T7); experiment: IP-MS: RelA antibody immunoprecipitation from MPC-5 cells, LC-MS of co-precipitated proteins

Measured: binding

transcription factor RelA (from UniProt Q04207 1-549)
binds: all assays above
